Read-outs that look alike come from different tables or passages of the source. These are yes or no findings as the source states them, for the method shown. Binding seen in cells or lysates may run through a third protein. These calls come from enrichment with a bait or labelling near it, and not all partners need be listed. For some of these results: A no says only that the protein was not detected with the bait.
T1: α-1 syntrophin (SNTA1) (human (endogenous in MCF-7)) (UniProt Q13424)
T1 sequence: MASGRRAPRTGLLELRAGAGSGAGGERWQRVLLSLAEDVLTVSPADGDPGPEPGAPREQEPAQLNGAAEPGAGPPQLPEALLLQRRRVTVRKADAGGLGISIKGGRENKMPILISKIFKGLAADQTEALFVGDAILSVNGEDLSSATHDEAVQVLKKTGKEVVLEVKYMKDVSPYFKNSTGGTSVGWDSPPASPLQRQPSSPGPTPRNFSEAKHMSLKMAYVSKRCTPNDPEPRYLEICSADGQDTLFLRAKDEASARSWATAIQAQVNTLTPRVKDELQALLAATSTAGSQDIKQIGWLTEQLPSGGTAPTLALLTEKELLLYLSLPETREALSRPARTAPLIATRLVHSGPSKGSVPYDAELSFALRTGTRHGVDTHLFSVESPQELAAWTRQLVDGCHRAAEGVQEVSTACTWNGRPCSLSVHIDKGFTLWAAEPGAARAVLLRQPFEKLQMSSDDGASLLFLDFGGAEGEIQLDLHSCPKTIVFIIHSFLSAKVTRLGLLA

The chains behind the UniProt entries cited, without tags or fusion partners. Where a name states a change or a piece, a line headed by the entry shows the natural chain unless it says otherwise. A line that says so, or that is headed by a name, gives the form on record, which may keep a tag or linker. Residues count along the entry.
UniProt P21333: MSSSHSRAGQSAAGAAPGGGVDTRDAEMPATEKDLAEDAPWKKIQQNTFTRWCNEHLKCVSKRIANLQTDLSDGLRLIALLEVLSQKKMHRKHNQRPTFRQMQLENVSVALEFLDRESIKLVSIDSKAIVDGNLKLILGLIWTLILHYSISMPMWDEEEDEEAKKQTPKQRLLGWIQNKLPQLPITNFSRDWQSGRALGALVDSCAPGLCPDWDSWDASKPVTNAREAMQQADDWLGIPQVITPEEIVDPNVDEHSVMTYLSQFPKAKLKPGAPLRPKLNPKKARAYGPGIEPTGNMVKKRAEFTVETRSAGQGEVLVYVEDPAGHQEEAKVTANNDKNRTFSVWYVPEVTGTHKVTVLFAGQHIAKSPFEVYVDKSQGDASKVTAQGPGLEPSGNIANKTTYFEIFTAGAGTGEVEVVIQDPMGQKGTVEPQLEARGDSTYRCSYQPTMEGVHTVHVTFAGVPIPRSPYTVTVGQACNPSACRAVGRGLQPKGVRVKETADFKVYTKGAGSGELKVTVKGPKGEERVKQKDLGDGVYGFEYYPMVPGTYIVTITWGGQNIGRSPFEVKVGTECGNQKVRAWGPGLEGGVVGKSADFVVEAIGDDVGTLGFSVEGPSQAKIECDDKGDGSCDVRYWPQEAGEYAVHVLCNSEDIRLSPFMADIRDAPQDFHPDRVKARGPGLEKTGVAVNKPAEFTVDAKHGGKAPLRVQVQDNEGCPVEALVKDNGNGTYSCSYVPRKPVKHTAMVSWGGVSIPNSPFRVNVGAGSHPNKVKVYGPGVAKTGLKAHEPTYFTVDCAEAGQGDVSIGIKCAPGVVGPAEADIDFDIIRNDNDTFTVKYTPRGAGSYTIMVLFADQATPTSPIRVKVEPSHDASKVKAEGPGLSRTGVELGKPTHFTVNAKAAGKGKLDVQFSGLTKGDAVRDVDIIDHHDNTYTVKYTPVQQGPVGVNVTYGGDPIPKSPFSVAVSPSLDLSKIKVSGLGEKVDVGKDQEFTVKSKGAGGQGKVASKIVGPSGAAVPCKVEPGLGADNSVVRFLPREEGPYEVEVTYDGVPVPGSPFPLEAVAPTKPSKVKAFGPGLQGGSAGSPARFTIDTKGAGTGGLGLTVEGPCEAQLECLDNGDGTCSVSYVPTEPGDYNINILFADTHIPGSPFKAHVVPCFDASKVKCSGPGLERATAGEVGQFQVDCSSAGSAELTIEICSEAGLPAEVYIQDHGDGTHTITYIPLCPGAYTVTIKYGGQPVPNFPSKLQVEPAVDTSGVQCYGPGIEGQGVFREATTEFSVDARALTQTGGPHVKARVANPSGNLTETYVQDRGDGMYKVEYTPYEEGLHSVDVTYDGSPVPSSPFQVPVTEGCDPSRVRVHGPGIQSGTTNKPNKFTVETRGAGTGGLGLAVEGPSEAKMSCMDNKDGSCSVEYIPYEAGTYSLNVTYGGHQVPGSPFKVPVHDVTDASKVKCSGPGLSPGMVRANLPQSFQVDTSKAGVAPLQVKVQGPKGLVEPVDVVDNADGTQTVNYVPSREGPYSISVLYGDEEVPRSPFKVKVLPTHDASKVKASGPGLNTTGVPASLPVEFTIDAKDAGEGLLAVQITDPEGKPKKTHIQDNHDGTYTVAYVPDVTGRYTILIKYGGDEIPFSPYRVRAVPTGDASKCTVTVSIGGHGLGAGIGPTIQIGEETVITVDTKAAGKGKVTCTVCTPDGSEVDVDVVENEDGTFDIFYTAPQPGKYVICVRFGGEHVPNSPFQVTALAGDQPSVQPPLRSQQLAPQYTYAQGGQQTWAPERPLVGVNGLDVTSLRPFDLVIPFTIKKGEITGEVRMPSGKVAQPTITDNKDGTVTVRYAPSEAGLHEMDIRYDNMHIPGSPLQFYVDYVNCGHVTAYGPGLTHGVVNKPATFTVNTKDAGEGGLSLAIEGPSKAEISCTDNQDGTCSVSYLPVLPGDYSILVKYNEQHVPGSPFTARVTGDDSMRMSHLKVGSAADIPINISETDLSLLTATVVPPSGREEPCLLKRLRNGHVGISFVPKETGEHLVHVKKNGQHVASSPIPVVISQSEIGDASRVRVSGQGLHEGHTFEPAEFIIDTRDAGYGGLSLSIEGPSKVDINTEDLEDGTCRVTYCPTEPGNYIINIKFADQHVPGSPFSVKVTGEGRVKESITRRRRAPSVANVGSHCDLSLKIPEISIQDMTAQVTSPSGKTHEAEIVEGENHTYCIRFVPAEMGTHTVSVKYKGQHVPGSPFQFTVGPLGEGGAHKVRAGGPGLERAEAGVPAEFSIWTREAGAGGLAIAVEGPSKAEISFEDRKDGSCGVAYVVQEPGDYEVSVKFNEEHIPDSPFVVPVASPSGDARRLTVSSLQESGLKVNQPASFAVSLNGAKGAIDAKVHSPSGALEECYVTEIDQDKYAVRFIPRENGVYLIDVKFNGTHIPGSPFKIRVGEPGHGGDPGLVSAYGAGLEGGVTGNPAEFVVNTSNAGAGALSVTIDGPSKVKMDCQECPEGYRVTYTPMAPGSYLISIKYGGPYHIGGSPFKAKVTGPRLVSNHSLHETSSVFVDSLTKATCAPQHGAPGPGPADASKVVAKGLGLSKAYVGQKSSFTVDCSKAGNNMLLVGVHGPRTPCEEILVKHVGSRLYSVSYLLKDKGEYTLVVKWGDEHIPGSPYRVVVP
HNRNPA2 (P22626-2, form named): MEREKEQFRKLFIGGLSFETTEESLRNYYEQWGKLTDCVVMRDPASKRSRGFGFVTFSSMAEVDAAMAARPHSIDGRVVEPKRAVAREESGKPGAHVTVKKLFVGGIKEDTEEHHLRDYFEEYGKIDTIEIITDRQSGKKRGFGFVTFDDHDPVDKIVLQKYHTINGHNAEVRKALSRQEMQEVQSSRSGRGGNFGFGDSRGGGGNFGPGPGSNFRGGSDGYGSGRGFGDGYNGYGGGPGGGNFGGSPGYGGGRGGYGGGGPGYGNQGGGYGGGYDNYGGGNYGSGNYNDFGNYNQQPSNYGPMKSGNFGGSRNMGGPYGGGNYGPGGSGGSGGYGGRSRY
UniProt Q9BQE3: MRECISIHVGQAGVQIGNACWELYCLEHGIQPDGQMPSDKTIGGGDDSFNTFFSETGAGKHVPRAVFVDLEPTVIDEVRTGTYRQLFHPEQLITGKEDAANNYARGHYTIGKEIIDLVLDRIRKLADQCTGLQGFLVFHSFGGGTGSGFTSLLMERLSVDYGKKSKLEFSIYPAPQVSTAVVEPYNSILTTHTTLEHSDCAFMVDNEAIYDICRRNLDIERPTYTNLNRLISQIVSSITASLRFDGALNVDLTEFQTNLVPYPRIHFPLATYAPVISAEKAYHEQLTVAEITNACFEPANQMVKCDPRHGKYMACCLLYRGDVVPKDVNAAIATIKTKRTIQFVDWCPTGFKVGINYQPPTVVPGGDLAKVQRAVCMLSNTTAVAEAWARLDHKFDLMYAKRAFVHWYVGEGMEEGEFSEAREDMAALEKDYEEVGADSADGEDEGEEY
UniProt P62258: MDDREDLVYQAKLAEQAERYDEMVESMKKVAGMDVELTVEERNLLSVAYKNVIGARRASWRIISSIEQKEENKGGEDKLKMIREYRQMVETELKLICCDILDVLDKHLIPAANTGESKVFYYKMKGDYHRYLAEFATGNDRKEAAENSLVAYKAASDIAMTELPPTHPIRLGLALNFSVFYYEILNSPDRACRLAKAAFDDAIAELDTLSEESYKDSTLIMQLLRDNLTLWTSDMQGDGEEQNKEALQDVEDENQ
UniProt P38646, residues 47-679: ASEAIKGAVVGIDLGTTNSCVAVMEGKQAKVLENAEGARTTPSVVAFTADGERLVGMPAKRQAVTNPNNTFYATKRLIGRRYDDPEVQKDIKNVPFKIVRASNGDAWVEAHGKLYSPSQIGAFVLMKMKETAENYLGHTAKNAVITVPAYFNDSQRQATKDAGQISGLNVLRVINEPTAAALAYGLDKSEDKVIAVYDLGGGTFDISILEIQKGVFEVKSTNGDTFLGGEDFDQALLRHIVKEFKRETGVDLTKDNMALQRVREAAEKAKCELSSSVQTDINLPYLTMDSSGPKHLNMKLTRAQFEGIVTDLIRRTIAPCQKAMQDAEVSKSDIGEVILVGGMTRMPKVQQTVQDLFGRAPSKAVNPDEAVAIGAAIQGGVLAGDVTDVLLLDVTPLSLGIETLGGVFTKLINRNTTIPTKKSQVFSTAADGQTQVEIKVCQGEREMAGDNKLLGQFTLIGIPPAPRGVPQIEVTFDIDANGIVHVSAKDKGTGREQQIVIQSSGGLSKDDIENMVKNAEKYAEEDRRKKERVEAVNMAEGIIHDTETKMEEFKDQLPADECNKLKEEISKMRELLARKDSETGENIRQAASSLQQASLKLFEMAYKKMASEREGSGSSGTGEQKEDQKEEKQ
UniProt P04792: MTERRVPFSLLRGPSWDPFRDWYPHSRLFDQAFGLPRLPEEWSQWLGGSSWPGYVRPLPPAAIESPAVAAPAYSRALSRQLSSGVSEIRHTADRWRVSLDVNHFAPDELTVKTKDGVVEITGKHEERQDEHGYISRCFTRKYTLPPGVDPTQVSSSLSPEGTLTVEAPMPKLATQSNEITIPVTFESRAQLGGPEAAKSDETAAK

B1: Protein S100-A11 (protein, UniProt P31949 1-105)
chain: MAKISSPTETERCIESLIAVFQKYAGKDGYNYTLSKTEFLSFMNTELAAFTKNQKDPGVLDRMMKKLDTNSDGQLDFSEFLNLIGGLAMACHDSFLKAVPSQKRT
B2: Keratin type I cytoskeletal 18 (protein, UniProt P05783 1-430)
chain: MSFTTRSTFSTNYRSLGSVQAPSYGARPVSSAASVYAGAGGSGSRISVSRSTSFRGGMGSGGLATGIAGGLAGMGGIQNEKETMQSLNDRLASYLDRVRSLETENRRLESKIREHLEKKGPQVRDWSHYFKIIEDLRAQIFANTVDNARIVLQIDNARLAADDFRVKYETELAMRQSVENDIHGLRKVIDDTNITRLQLETEIEALKEELLFMKKNHEEEVKGLQAQIASSGLTVEVDAPKSQDLAKIMADIRAQYDELARKNREELDKYWSQQIEESTTVVTTQSAEVGAAETTLTELRRTVQSLEIDLDSMRNLKASLENSLREVEARYALQMEQLNGILLHLESELAQTRAEGQRQAQEYEALLNIKVKLEAEIATYRRLLEDGEDFNLGDALDSSNSMQTIQKTTTRRIVDGKVVSETNDTKVLRH
B3: CCDC124 (protein, UniProt Q96CT7 1-223)
chain: MPKKFQGENTKSAAARARRAEAKAAADAKKQKELEDAYWKDDDKHVMRKEQRKEEKEKRRLDQLERKKETQRLLEEEDSKLKGGKAPRVATSSKVTRAQIEDTLRRDHQLREAPDTAEKAKSHLEVPLEENVNRRVLEEGSVEARTIEDAIAVLSVAEEAADRHPERRMRAAFTAFEEAQLPRLKQENPNMRLSQLKQLLKKEWLRSPDNPMNQRAVPFNAPK

How the values were obtained:
Experiment in all cases: affinity purification with mass spectrometry
[1] = target: T1, α-1 syntrophin (SNTA1) (human (endogenous in MCF-7))
[2] = target: T1, α-1 syntrophin (SNTA1) (human (endogenous in MCF-7)); remark: listed apart in the source
[3] = target: T1, α-1 syntrophin (SNTA1) (human (endogenous in MCF-7)); remark: listed apart in the source

Molecule	binding [1]	binding [2]	binding [3]
HIST1H2B (human (endogenous in MCF-7))	binds		
Filamin A isoform 2 (from UniProt P21333 1-2647)	no binding	no binding	
AHNAK (from UniProt Q09666 1-5890)	binds		
E3 ubiquitin-protein ligase RNF213 isoform X2 (human (endogenous in MCF-7))	binds		
HNRNPA2 (from UniProt P22626-2 1-341)	no binding		
Peroxiredoxin-4 isoform X1 (human (endogenous in MCF-7))	binds		
TUBA1C (from UniProt Q9BQE3 1-449)	no binding		
14-3-3 protein epsilon (from UniProt P62258 1-255)	binds		
Stress-70 protein (from UniProt P38646 47-679)	no binding	no binding	
HSPB1 (from UniProt P04792 1-205)	binds		binds
B1	binds		
B2	binds		
B3	no binding		
